Values quoted from earlier work as cited in patent US10071957B2, “N-substituted benzamides and methods of use thereof” (GENENTECH, INC., priority 2012, dated 2018).

Details: administered topically; cited from earlier work

CCN(CC)CC(=O)Nc1c(C)cccc1C [lidocaine]
plasma concentrations: about 1 μM
